Experimental data published in US8282967B2, “Nitric oxide-releasing particles for nitric oxide therapeutics and biomedical applications” (The University of North Carolina at Chapel Hill, priority 2005, dated 2012).
At least one structure is not confirmed: it was looked up by name or label, or the drawing left a doubt.

Test system: A2780 ovarian epithelial tumor cells
Test: MTT cell viability assay, A2780 cells
Type: cell-based, human
Conditions: small molecule NO donor; cell line not named in the sentence (b369 names OVCAR-3 for PYRRO/NO)
Method: To evaluate the tumoricidal potential of NO donor silica nanoparticles, the cytotoxicity of control and NO-releasing silica particles on immortalized normal (T29) and cancer (A2780 and OVCAR-3) human ovarian epithelial cells was tested. MTT cell viability assays were performed as described below. The 3-(4,5-dimethylthiazol-2-yl-)-2,5-diphenyltetrazoliumbromide (MTT) proliferation assay was employed to determine the relative sensitivities of OVCAR-3 cells to PYRRO/NO. Cells were seeded in 6 replicates at 1−5×10^3 cells/well in 96-well microtiter plates, incubated overnight, and exposed to concentrations of NO donor and control pyrrolidine solutions for 48 h. The NO-releasing medium was then removed and replaced by MTT solution, upon which the cells were incubated for an additional 4 h at 37° C. Following removal of the MTT, DMSO was added, and the absorption of the solution was measured at 560 nm using a microplate reader.
To investigate whether nanoparticle size affects cytotoxicity, two silica nanoparticles (75 mol % MAP3, balance TEOS) of different particle size (80 and 350 nm in diameter, hereafter referred to as s-MAP3 and L-MAP3, respectively) were synthesized. […] Cell viability was determined by incubating T29 and A2780 with non NO-releasing control MAP3 particle (80 nm), s-MAP3, or L-MAP3 (0.4 mg/mL) for 48 h. […]

[Na+].[O-]N=[N+]([O-])N1CCCC1 [PYRRO/NO]
IC50: 2000 µM
